Experimental findings from publication doi:10.1101/2023.12.19.572309 (bioRxiv, 2023) are described below.

Protein sequences, listed by entry. Tags and fused reporters are not part of them. Lines headed by an entry give the natural chain unless they say otherwise; changes in a name come on top. Chains listed by the source or under a name are the forms on record and can include a tag or linker. Residues count along the entry.
UniProt Q9UI12: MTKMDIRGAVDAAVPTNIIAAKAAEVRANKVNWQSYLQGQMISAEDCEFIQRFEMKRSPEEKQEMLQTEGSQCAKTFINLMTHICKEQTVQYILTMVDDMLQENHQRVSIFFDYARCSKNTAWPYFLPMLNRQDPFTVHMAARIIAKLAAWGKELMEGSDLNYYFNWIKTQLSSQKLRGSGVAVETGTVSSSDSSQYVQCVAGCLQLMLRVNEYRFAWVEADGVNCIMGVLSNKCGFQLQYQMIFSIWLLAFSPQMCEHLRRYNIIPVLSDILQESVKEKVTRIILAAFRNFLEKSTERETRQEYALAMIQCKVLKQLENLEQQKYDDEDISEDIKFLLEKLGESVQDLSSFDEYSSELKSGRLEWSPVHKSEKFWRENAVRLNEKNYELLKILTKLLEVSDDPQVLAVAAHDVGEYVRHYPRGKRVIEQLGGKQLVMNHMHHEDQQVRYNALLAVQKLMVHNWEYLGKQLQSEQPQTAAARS
V1H(1-351)-FLAG: residues 1-351 of Q9UI12
short V1H-FLAG (lacking exon 7) (Q9UI12, form named): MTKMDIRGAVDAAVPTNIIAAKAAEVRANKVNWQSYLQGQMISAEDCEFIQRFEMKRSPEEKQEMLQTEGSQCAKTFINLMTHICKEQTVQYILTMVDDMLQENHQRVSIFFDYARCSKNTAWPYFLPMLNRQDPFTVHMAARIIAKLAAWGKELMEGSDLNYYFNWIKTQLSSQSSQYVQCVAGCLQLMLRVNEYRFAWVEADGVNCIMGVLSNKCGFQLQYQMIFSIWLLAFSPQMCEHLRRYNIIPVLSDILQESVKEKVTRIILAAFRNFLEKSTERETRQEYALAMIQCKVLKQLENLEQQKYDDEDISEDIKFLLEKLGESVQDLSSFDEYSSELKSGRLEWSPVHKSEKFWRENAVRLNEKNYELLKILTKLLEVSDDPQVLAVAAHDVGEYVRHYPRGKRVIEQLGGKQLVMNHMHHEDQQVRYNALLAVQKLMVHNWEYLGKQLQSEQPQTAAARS
UniProt Q676U5: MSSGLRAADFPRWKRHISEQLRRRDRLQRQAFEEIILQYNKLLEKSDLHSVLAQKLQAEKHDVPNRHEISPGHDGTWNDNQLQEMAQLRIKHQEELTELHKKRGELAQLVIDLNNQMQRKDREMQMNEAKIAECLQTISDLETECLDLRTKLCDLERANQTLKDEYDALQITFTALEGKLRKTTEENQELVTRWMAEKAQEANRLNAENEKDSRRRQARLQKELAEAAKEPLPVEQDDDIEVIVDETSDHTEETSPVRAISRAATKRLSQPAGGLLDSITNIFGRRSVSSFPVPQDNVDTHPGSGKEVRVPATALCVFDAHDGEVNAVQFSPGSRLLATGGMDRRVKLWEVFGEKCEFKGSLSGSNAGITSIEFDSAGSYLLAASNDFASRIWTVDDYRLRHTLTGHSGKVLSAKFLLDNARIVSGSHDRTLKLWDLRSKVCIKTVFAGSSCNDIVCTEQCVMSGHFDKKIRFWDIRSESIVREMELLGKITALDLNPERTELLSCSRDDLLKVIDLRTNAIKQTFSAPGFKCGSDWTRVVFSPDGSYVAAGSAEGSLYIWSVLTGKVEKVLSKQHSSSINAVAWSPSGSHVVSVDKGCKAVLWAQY

For experiment [1], the target named is short V1H-FLAG (lacking exon 7) (human) (UniProt Q9UI12). The experiment in a line: co-IP.
Experiment [2] addresses V1H-FLAG (full length human V1H, transcript variant 1) (human) (UniProt Q9UI12). The experiment in a line: co-IP.
Experiment [3] has as its target V1H(1-351)-FLAG (human) (UniProt Q9UI12). Description: co-IP.
The target in experiment [4] is ATG16L1 (recombinant, within the ATG16L1-(StrepII^2x)ATG5–ATG12 complex) (UniProt Q676U5). The experiment in a line: cross-linking.

Results are given in words; binding and its absence hold for the method and conditions named. For some of these results: Binding seen in cells or lysates may run through a third protein. Some results given as binding are weak or reduced against the parent protein; the word gives no strength.

Regarding “endogenous ATG16L1 (from UniProt Q676U5 1-607)”, the binding result in experiment [1], in experiment [2] and in experiment [3] was “binds” throughout.
In the case of “V-ATPase V1H subunit (endogenous, within the purified SidK/V-ATPase) (from UniProt Q9UI12 1-483)”, in experiment [4], the binding entry is listed as “binds”.
